Test results published in PMC7956269.

B1: Thrap3 (protein, UniProt Q9Y2W1 1-955)
chain: MSKTNKSKSGSRSSRSRSASRSRSRSFSKSRSRSRSLSRSRKRRLSSRSRSRSYSPAHNRERNHPRVYQNRDFRGHNRGYRRPYYFRGRNRGFYPWGQYNRGGYGNYRSNWQNYRQAYSPRRGRSRSRSPKRRSPSPRSRSHSRNSDKSSSDRSRRSSSSRSSSNHSRVESSKRKSAKEKKSSSKDSRPSQAAGDNQGDEAKEQTFSGGTSQDTKASESSKPWPDATYGTGSASRASAVSELSPRERSPALKSPLQSVVVRRRSPRPSPVPKPSPPLSSTSQMGSTLPSGAGYQSGTHQGQFDHGSGSLSPSKKSPVGKSPPSTGSTYGSSQKEESAASGGAAYTKRYLEEQKTENGKDKEQKQTNTDKEKIKEKGSFSDTGLGDGKMKSDSFAPKTDSEKPFRGSQSPKRYKLRDDFEKKMADFHKEEMDDQDKDKAKGRKESEFDDEPKFMSKVIGANKNQEEEKSGKWEGLVYAPPGKEKQRKTEELEEESFPERSKKEDRGKRSEGGHRGFVPEKNFRVTAYKAVQEKSSSPPPRKTSESRDKLGAKGDFPTGKSSFSITREAQVNVRMDSFDEDLARPSGLLAQERKLCRDLVHSNKKEQEFRSIFQHIQSAQSQRSPSELFAQHIVTIVHHVKEHHFGSSGMTLHERFTKYLKRGTEQEAAKNKKSPEIHRRIDISPSTFRKHGLAHDEMKSPREPGYKAEGKYKDDPVDLRLDIERRKKHKERDLKRGKSRESVDSRDSSHSRERSAEKTEKTHKGSKKQKKHRRARDRSRSSSSSSQSSHSYKAEEYTEETEEREESTTGFDKSRLGTKDFVGPSERGGGRARGTFQFRARGRGWGRGNYSGNNNNNSNNDFQKRNREEEWDPEYTPKSKKYYLHDDREGEGSDKWVSRGRGRGAFPRGRGRFMFRKSSTSPKWAHDKFSGEEGEIEDDESGTENREEKDNIQPTTE
B2: Utp14a (protein, UniProt Q9BVJ6 1-771)
chain: MTANRLAESLLALSQQEELADLPKDYLLSESEDEGDNDGERKHQKLLEAISSLDGKNRRKLAERSEASLKVSEFNVSSEGSGEKLVLADLLEPVKTSSSLATVKKQLSRVKSKKTVELPLNKEEIERIHREVAFNKTAQVLSKWDPVVLKNRQAEQLVFPLEKEEPAIAPIEHVLSGWKARTPLEQEIFNLLHKNKQPVTDPLLTPVEKASLRAMSLEEAKMRRAELQRARALQSYYEAKARREKKIKSKKYHKVVKKGKAKKALKEFEQLRKVNPAAALEELEKIEKARMMERMSLKHQNSGKWAKSKAIMAKYDLEARQAMQEQLSKNKELTQKLQVASESEEEEGGTEDVEELLVPDVVNEVQMNADGPNPWMLRSCTSDTKEAATQEDPEQLPELEAHGVSESEGEERPVAEEEILLREFEERRSLRKRSELSQDAEPAGSQETKDSGSQEVLSELRVLSQKLKENHQSRKQKASSEGTIPQVQREEPAPEEEEPLLLQRPERVQTLEELEELGKEECFQNKELPRPVLEGQQSERTPNNRPDAPKEKKKKEQMIDLQNLLTTQSPSVKSLAVPTIEELEDEEERNHRQMIKEAFAGDDVIRDFLKEKREAVEASKPKDVDLTLPGWGEWGGVGLKPSAKKRRRFLIKAPEGPPRKDKNLPNVIINEKRNIHAAAHQVRVLPYPFTHHWQFERTIQTPIGSTWNTQRAFQKLTTPKVVTKPGHIINPIKAEDVGYRSSSRSDLSVIQRNPKRITTRHKKQLKKCSVD
B3: Slc25a3 (protein, UniProt Q00325 50-362)
chain: AVEEQYSCDYGSGRFFILCGLGGIISCGTTHTALVPLDLVKCRMQVDPQKYKGIFNGFSVTLKEDGVRGLAKGWAPTFLGYSMQGLCKFGFYEVFKVLYSNMLGEENTYLWRTSLYLAASASAEFFADIALAPMEAAKVRIQTQPGYANTLRDAAPKMYKEEGLKAFYKGVAPLWMRQIPYTMMKFACFERTVEALYKFVVPKPRSECSKPEQLVVTFVAGYIAGVFCAIVSHPADSVVSVLNKEKGSSASLVLKRLGFKGVWKGLFARIIMIGTLTALQWFIYDSVKVYFRLPRPPPPEMPESLKKKLGLTQ
B4: Upf1 (protein, UniProt Q92900 1-1129)
chain: MSVEAYGPSSQTLTFLDTEEAELLGADTQGSEFEFTDFTLPSQTQTPPGGPGGPGGGGAGGPGGAGAGAAAGQLDAQVGPEGILQNGAVDDSVAKTSQLLAELNFEEDEEDTYYTKDLPIHACSYCGIHDPACVVYCNTSKKWFCNGRGNTSGSHIVNHLVRAKCKEVTLHKDGPLGETVLECYNCGCRNVFLLGFIPAKADSVVVLLCRQPCASQSSLKDINWDSSQWQPLIQDRCFLSWLVKIPSEQEQLRARQITAQQINKLEELWKENPSATLEDLEKPGVDEEPQHVLLRYEDAYQYQNIFGPLVKLEADYDKKLKESQTQDNITVRWDLGLNKKRIAYFTLPKTDSGNEDLVIIWLRDMRLMQGDEICLRYKGDLAPLWKGIGHVIKVPDNYGDEIAIELRSSVGAPVEVTHNFQVDFVWKSTSFDRMQSALKTFAVDETSVSGYIYHKLLGHEVEDVIIKCQLPKRFTAQGLPDLNHSQVYAVKTVLQRPLSLIQGPPGTGKTVTSATIVYHLARQGNGPVLVCAPSNIAVDQLTEKIHQTGLKVVRLCAKSREAIDSPVSFLALHNQIRNMDSMPELQKLQQLKDETGELSSADEKRYRALKRTAERELLMNADVICCTCVGAGDPRLAKMQFRSILIDESTQATEPECMVPVVLGAKQLILVGDHCQLGPVVMCKKAAKAGLSQSLFERLVVLGIRPIRLQVQYRMHPALSAFPSNIFYEGSLQNGVTAADRVKKGFDFQWPQPDKPMFFYVTQGQEEIASSGTSYLNRTEAANVEKITTKLLKAGAKPDQIGIITPYEGQRSYLVQYMQFSGSLHTKLYQEVEIASVDAFQGREKDFIILSCVRANEHQGIGFLNDPRRLNVALTRARYGVIIVGNPKALSKQPLWNHLLNYYKEQKVLVEGPLNNLRESLMQFSKPRKLVNTINPGARFMTTAMYDAREAIIPGSVYDRSSQGRPSSMYFQTHDQIGMISAGPSHVAAMNIPIPFNLVMPPMPPPGYFGQANGPAAGRGTPKGKTGRGGRQKNRFGLPGPSQTNLPNSQASQDVASQPFSQGALTQGYISMSQPSQMSQPGLSQPELSQDSYLGDEFKSQIDVALSQDSTYQGERAYQHGGVTGLSQY
B5: Rrp1b (protein, UniProt Q14684 1-758)
chain: MAPAMQPAEIQFAQRLASSEKGIRDRAVKKLRQYISVKTQRETGGFSQEELLKIWKGLFYCMWVQDEPLLQEELANTIAQLVHAVNNSAAQHLFIQTFWQTMNREWKGIDRLRLDKYYMLIRLVLRQSFEVLKRNGWEESRIKVFLDVLMKEVLCPESQSPNGVRFHFIDIYLDELSKVGGKELLADQNLKFIDPFCKIAAKTKDHTLVQTIARGVFEAIVDQSPFVPEETMEEQKTKVGDGDLSAEEIPENEVSLRRAVSKKKTALGKNHSRKDGLSDERGRDDCGTFEDTGPLLQFDYKAVADRLLEMTSRKNTPHFNRKRLSKLIKKFQDLSEGSSISQLSFAEDISADEDDQILSQGKHKKKGNKLLEKTNLEKEKGSRVFCVEEEDSESSLQKRRRKKKKKHHLQPENPGPGGAAPSLEQNRGREPEASGLKALKARVAEPGAEATSSTGEESGSEHPPAVPMHNKRKRPRKKSPRAHREMLESAVLPPEDMSQSGPSGSHPQGPRGSPTGGAQLLKRKRKLGVVPVNGSGLSTPAWPPLQQEGPPTGPAEGANSHTTLPQRRRLQKKKAGPGSLELCGLPSQKTASLKKRKKMRVMSNLVEHNGVLESEAGQPQALGSSGTCSSLKKQKLRAESDFVKFDTPFLPKPLFFRRAKSSTATHPPGPAVQLNKTPSSSKKVTFGLNRNMTAEFKKTDKSILVSPTGPSRVAFDPEQKPLHGVLKTPTSSPASSPLVAKKPLTTTPRRRPRAMDFF
B6: Las1l (protein, UniProt Q9Y4W2 1-734)
chain: MSWESGAGPGLGSQGMDLVWSAWYGKCVKGKGSLPLSAHGIVVAWLSRAEWDQVTVYLFCDDHKLQRYALNRITVWRSRSGNELPLAVASTADLIRCKLLDVTGGLGTDELRLLYGMALVRFVNLISERKTKFAKVPLKCLAQEVNIPDWIVDLRHELTHKKMPHINDCRRGCYFVLDWLQKTYWCRQLENSLRETWELEEFREGIEEEDQEEDKNIVVDDITEQKPEPQDDGKSTESDVKADGDSKGSEEVDSHCKKALSHKELYERARELLVSYEEEQFTVLEKFRYLPKAIKAWNNPSPRVECVLAELKGVTCENREAVLDAFLDDGFLVPTFEQLAALQIEYEDGQTEVQRGEGTDPKSHKNVDLNDVLVPKPFSQFWQPLLRGLHSQNFTQALLERMLSELPALGISGIRPTYILRWTVELIVANTKTGRNARRFSAGQWEARRGWRLFNCSASLDWPRMVESCLGSPCWASPQLLRIIFKAMGQGLPDEEQEKLLRICSIYTQSGENSLVQEGSEASPIGKSPYTLDSLYWSVKPASSSFGSEAKAQQQEEQGSVNDVKEEEKEEKEVLPDQVEEEEENDDQEEEEEDEDDEDDEEEDRMEVGPFSTGQESPTAENARLLAQKRGALQGSAWQVSSEDVRWDTFPLGRMPGQTEDPAELMLENYDTMYLLDQPVLEQRLEPSTCKTDTLGLSCGVGSGNCSNSSSSNFEGLLWSQGQLHGLKTGLQLF
B7: Osbpl6 (protein, UniProt Q9BZF3 1-934)
chain: MSSDEKGISPAHKTSTPTHRSASSSTSSQRDSRQSIHILERTASSSTEPSVSRQLLEPEPVPLSKEADSWEIIEGLKIGQTNVQKPDKHEGFMLKKRKWPLKGWHKRFFVLDNGMLKYSKAPLDIQKGKVHGSIDVGLSVMSIKKKARRIDLDTEEHIYHLKVKSQDWFDAWVSKLRHHRLYRQNEIVRSPRDASFHIFPSTSTAESSPAANVSVMDGKMQPNSFPWQSPLPCSNSLPATCTTGQSKVAAWLQDSEEMDRCAEDLAHCQSNLVELSKLLQNLEILQRTQSAPNFTDMQANCVDISKKDKRVTRRWRTKSVSKDTKIQLQVPFSATMSPVRLHSSNPNLCADIEFQTPPSHLTDPLESSTDYTKLQEEFCLIAQKVHSLLKSAFNSIAIEKEKLKQMVSEQDHSKGHSTQMARLRQSLSQALNQNAELRSRLNRIHSESIICDQVVSVNIIPSPDEAGEQIHVSLPLSQQVANESRLSMSESVSEFFDAQEVLLSASSSENEASDDESYISDVSDNISEDNTSVADNISRQILNGELTGGAFRNGRRACLPAPCPDTSNINLWNILRNNIGKDLSKVSMPVELNEPLNTLQHLCEEMEYSELLDKASETDDPYERMVLVAAFAVSGYCSTYFRAGSKPFNPVLGETYECIREDKGFRFFSEQVSHHPPISACHCESKNFVFWQDIRWKNKFWGKSMEILPVGTLNVMLPKYGDYYVWNKVTTCIHNILSGRRWIEHYGEVTIRNTKSSVCICKLTFVKVNYWNSNMNEVQGVVIDQEGKAVYRLFGKWHEGLYCGVAPSAKCIWRPGSMPTNYELYYGFTRFAIELNELDPVLKDLLPPTDARFRPDQRFLEEGNLEAAASEKQRVEELQRSRRRYMEENNLEHIPKFFKKVIDANQREAWVSNDTYWELRKDPGFSKVDSPVLW

Biological target: Biotin-FOXC1 (mouse) (UniProt Q61572)
Test: affinity purification with mass spectrometry; streptavidin-agarose precipitation of biotinylated FOXC1 from nuclear extract of stable HEK293T cells (293T-Biotin-FOXC1); IP350 buffer (350 mM NaCl, 20 mM Tris-HCl pH 7.5, 0.5% NP40, 1 mM EDTA, 10% glycerin); SDS-PAGE, LC-ESI-MS/MS; proteins of the 293T-Biotin control deducted

binding, binds:
B1
B2
B3
B4
B5
B6
B7

These are yes or no findings as the source states them, for the method shown. In cells and extracts the contact can be indirect. Here binding means that the protein was enriched with, or labelled near, the bait; the list need not be complete.
